Results on one molecule are retold here after article PMC5359613.

No constants are given. Whether binding was seen depends on the method and setting. Where a sequence is shown, tags or fusion partners need not be part of it.

The assay has as its target T1, MadB of Phycomyces blakesleeanus (homolog of N. crassa WC-2) (Phycomyces blakesleeanus) (UniProt B5M9P7).
T1 sequence: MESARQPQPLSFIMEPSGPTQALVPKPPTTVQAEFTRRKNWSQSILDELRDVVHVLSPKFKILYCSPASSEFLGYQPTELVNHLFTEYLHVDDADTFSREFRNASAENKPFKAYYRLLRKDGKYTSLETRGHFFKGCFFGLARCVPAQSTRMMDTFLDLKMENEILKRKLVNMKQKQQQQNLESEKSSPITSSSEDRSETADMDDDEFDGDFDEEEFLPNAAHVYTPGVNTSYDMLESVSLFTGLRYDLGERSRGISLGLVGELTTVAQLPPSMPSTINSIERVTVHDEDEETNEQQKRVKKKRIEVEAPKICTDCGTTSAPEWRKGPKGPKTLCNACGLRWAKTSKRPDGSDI
As to the kind of experiment: two-hybrid; Gal4 activation domain (pGADT7) and DNA binding domain (pGBKT7) fusions co-transformed into S. cerevisiae PJ69-4A; growth on -histidine + 0.5 mM 3-amino triazole or -adenine, and β-galactosidase activity.

B1: MadC protein of Phycomyces blakesleeanus (Ras GTPase activating protein) (protein, UniProt A0A1U9IW06 1-821)
chain: MAGHTHVLSDSHSRTIPSDYLANSTIVSRAMAAAAANNHHNAHAIRRGRQSHRYDVSVFYSMAAEQDIEIEDDLALAQRTLRDFKSNISAQSKKNFMLERDVRFLDSRIALLIQNRMALDEQTEVVSHLEYHDDDTEGHYPDDRKMQQYGSLFFLLQCEPRHMATLCRLVRLSEIDTLLQTVMFTLYGNQYESREEHLLLTMFQNVLAAQFETTSEFASLLRANTPVSRMMTTYTRRGPGQSYLKLVLSDRINRLIEQVDLNLQINPLKVYEELILAAEEGREEDQGLERGISAEGAAAHPQVKATIKPRLALLMETAESFLDTILGSLDKVPYGIRWICKQIRSLTRRKYPDASDSAIASLIGGFFFLRFINPAIVTPQAYMLVDNLPKNHPRAVLTLVAKLLQNLANKPAYAKESYMIPTNSFIEKNKQRINKFLNDLCEVGDFYESLEMDQYMTLSKKDIIINITPNEIYNTLALLQQHIDILAPKPTDHLRVLVSELGTALPQVARQHNKPIELPLFSRWEIPIQDLTMALMSENNITQSDITYMETKAIFVQIIRSLPYLSRPPLQLAQILETANTAKDPLLTRKGLKVTEMLDELERMGVIHRQDGYKLLVEEITQELAHLGDLKDKVVEEMGSLEGVYKTILDHNNYLKIQLESYRAYLQNVRMLSIGNTKEAVHHGHEPALAEKQVGLGVALTTGKTAKKTVKSQHLQGPFKFSHQQLEREGVIAETEVAEHRRCNIFLSVLSPLPGTFIISLHYKGRERPVLEIDLKLDDLLERQQDNVQLLDLEYMKLHVTKTLQLLTKTFMTKNKTGFFS
On to B1, for which the binding entry is “no binding”.
